This is an account of results in publication PMC4870705, “Topical Delivery of Protein and Peptide Using Novel Cell Penetrating Peptide IMT-P8” (Scientific Reports, 2016).

The test system of this data set is HeLa cells. The data set can be described thus: Confocal laser scanning microscopy, intracellular localization in live cells. The note with it: FITC-labeled peptide 2.5 μM with MitoTracker Red CMXRos 100 nM, 30 min, 37 °C, serum-free medium.

With “KLAKLAKKLAKLAKRRWRRWNRFNRRRCR [IMT-P8-KLA]”, the “Co-localization with MitoTracker (mitochondria-specific dye)” value is recorded as “co-localization with MitoTracker”.

With RRWRRWNRFNRRRCR [IMT-P8], the “Co-localization with MitoTracker (mitochondria-specific dye)” value is “did not show any co-localization with Mitotracker dye”.
